Results from article PMC10722681, “RGCC-mediated PLK1 activity drives breast cancer lung metastasis by phosphorylating AMPKα2 to activate oxidative phosphorylation and fatty acid oxidation” (Journal of Experimental & Clinical Cancer Research : CR, 2023).

The chains behind the UniProt entries cited, without tags or fusion partners.
UniProt P53350: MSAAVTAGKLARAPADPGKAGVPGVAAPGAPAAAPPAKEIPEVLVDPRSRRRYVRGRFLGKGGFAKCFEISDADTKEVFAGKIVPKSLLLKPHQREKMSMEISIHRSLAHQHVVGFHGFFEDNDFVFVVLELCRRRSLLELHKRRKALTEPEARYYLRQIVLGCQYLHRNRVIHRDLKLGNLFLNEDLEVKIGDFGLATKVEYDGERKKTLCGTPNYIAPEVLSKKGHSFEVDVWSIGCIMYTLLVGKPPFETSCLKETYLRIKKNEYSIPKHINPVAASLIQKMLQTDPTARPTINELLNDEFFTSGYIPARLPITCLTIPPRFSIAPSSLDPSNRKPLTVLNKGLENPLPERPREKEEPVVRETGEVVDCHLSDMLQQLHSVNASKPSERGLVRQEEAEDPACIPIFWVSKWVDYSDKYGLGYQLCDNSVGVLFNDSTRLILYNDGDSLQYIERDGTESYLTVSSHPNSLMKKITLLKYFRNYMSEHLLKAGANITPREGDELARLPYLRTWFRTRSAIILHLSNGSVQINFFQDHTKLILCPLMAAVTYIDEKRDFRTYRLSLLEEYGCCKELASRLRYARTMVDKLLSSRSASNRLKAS

Target: T1, Response gene to complement 32 protein (RGCC) (human (endogenous in MDA-MB-231/LM3)) (UniProt Q9H4X1)
T1 sequence: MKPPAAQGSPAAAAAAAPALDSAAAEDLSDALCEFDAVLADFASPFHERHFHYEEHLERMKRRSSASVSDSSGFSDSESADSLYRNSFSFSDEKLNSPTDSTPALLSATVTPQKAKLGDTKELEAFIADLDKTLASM
Assay: affinity purification with mass spectrometry; MDA-MB-231/LM3 cells immunoprecipitated with anti-RGCC agarose beads; digest analysed by LC-MS/MS (Triple TOF 5600+)

binding: binds
Substance: PLK1 (from UniProt P53350 1-603)

No constants are given. Whether binding was seen depends on the method and setting. Binding seen in cells or lysates may run through a third protein. These calls come from enrichment with a bait or labelling near it, and not all partners need be listed.
